Measurements as given in article PMC7794802, “The Interactome of Cancer-Related Lysyl Oxidase and Lysyl Oxidase-Like Proteins” (Cancers, 2020).
These are yes or no findings as the source states them, for the method shown. Some results given as binding are weak or reduced against the parent protein; the word gives no strength.

By UniProt entry, the sequences of proteins in these tests, tags left out. Residues count along the entry.
UniProt Q9UMD9, residues 489-1497: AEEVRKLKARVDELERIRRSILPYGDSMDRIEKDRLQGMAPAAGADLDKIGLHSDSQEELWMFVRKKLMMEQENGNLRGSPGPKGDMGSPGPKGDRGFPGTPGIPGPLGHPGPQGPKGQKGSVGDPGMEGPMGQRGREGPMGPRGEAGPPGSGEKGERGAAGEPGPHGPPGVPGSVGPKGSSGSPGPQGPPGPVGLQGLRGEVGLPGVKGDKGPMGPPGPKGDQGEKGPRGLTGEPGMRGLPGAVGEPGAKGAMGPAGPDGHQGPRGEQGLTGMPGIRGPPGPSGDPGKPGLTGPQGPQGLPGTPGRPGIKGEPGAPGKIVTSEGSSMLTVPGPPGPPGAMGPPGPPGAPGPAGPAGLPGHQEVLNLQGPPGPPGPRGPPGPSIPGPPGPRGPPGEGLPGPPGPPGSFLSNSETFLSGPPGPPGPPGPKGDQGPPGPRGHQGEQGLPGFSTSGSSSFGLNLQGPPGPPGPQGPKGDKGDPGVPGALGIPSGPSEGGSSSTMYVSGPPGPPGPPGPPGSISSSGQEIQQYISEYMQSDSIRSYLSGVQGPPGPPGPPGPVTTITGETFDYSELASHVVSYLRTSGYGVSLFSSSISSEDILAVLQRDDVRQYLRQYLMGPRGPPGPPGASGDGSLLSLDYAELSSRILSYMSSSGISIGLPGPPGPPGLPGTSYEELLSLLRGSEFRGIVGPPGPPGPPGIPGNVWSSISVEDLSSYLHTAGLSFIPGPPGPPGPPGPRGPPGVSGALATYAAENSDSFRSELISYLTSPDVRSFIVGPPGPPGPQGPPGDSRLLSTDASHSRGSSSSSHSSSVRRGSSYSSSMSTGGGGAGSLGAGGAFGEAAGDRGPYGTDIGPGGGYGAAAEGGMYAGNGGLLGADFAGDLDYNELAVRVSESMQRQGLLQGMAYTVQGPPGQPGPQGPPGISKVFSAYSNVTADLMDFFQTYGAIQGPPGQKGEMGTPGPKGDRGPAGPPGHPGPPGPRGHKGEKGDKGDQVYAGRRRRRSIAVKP
UniProt P39060, residues 1572-1754: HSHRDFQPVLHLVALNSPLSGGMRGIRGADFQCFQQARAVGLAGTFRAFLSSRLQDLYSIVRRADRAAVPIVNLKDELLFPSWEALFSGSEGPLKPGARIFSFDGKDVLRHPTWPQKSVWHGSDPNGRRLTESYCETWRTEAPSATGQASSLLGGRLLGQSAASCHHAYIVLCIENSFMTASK
UniProt Q5TAT6, residues 62-717: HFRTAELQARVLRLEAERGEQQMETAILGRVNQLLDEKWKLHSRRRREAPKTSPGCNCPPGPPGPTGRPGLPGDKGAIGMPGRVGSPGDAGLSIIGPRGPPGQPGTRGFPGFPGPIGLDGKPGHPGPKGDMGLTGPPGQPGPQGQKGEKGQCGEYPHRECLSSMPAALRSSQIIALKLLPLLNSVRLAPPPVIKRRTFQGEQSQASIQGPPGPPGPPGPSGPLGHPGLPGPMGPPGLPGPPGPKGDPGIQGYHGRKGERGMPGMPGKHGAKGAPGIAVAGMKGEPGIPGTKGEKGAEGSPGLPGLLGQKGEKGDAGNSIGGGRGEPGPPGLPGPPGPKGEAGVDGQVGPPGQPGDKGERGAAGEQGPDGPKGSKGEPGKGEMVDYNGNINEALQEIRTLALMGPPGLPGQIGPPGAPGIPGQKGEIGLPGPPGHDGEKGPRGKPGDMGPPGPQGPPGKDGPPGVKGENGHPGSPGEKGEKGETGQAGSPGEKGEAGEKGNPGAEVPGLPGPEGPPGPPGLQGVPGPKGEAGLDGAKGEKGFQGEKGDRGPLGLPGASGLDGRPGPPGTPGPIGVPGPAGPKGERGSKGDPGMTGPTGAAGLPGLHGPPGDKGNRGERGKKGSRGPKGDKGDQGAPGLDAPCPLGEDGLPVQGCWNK

T1: SPARC (UniProt P09486 18-303)
T1 construct: SPARC; also called immobilized SPARC
T1 sequence (looked up): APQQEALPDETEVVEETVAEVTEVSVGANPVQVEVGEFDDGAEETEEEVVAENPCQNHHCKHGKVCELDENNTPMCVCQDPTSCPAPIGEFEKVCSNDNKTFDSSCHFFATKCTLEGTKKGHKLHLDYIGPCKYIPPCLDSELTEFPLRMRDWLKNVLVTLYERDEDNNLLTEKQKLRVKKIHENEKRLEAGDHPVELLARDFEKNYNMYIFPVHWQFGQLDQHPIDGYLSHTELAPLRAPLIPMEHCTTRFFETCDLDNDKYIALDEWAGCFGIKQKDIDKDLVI

T2: angiopoietin-related protein 4 (ANGPTL4) (UniProt Q9BY76)
T2 sequence: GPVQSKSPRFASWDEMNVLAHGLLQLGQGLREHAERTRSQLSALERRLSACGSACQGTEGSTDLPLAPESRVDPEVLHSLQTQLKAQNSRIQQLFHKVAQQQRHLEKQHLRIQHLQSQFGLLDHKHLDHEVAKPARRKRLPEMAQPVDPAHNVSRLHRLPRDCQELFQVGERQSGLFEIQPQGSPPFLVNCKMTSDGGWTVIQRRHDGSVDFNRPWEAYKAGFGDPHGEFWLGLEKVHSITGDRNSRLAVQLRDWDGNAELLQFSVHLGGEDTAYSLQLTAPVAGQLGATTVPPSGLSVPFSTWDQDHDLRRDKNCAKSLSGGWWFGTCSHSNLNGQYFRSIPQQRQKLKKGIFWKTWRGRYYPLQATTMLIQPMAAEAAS


Assays:
[1] = biological target: T1, SPARC; experiment: SPR; SPR imaging, BIAcore Flexchip; proteins spotted in triplicate (physically adsorbed) on Gold Affinity chips, blocked with buffer containing mammalian proteins; LOXL2, SRCR 1-2 and SRCR 1-4 (500 nM) recirculated over the arrays for 20 min; both purified
[2] = biological target: T2, angiopoietin-related protein 4 (ANGPTL4); experiment: as above
[3] = biological target: lysyl oxidase-like 2 (LOXL2), full-length recombinant protein (UniProt Q9Y4K0); experiment: SPR; BIAcore T100; LOXL2 covalently immobilised on a CM5 sensor chip via primary amino groups; ectodomain of human collagen XIII injected at different concentrations at 30 µL/min for 180 s; both purified
[4] = biological target: ectodomain of human collagen XVII (human) (UniProt Q9UMD9); experiment: SPR; BIAcore T100; ligands covalently immobilised by amine coupling on CM5 or CM3 (collagen XVII) sensor chips; LOXL2, SRCR 1-2 and SRCR 1-4 injected in 10 mM Hepes pH 7.4, 150 mM NaCl, 0.05% P20; both purified
[5] = biological target: endostatin (UniProt P39060); experiment: SPR; SPR imaging, BIAcore Flexchip; proteins spotted in triplicate (physically adsorbed) on Gold Affinity chips, blocked with buffer containing mammalian proteins; LOXL2, SRCR 1-2 and SRCR 1-4 (500 nM) recirculated over the arrays for 20 min; both purified

| binding [1] | binding [2] | binding [3] | binding [4] | binding [5] | Molecule |
| --- | --- | --- | --- | --- | --- |
| binds | binds | – | – | – | LOXL2 N-terminal scavenger receptor cysteine-rich domains SRCR 1-4 (residues 58-544) (from UniProt Q9Y4K0 58-544) (domain or fragment) |
| – | – | binds | – | – | ectodomain of human collagen XIII (from UniProt Q5TAT6 62-717) (domain or fragment) |
| – | no binding (tested: 500 nM) | – | binds | binds | lysyl oxidase-like 2 (LOXL2), full-length recombinant protein (enzyme, UniProt Q9Y4K0 26-774, looked up, lysyl oxidase-like 2 (LOXL2), full-length recombinant protein made in the laboratory; As a secreted recombinant protein it probably lacks its signal peptide (surmise); also called full-length LOXL2; soluble LOXL2; source: expressed as recombinant protein as previously described [62]) QYDSWPHYPEYFQQPAPEYHQPQAPANVAKIQLRLAGQKRKHSEGRVEVYYDGQWGTVCDDDFSIHAAHVVCRELGYVEAKSWTASSSYGKGEGPIWLDNLHCTGNEATLAACTSNGWGVTDCKHTEDVGVVCSDKRIPGFKFDNSLINQIENLNIQVEDIRIRAILSTYRKRTPVMEGYVEVKEGKTWKQICDKHWTAKNSRVVCGMFGFPGERTYNTKVYKMFASRRKQRYWPFSMDCTGTEAHISSCKLGPQVSLDPMKNVTCENGLPAVVSCVPGQVFSPDGPSRFRKAYKPEQPLVRLRGGAYIGEGRVEVLKNGEWGTVCDDKWDLVSASVVCRELGFGSAKEAVTGSRLGQGIGPIHLNEIQCTGNEKSIIDCKFNAESQGCNHEEDAGVRCNTPAMGLQKKLRLNGGRNPYEGRVEVLVERNGSLVWGMVCGQNWGIVEAMVVCRQLGLGFASNAFQETWYWHGDVNSNKVVMSGVKCSGTELSLAHCRHDGEDVACPQGGVQYGAGVACSETAPDLVLNAEMVQQTTYLEDRPMFMLQCAMEENCLSASAAQTDPTTGYRRLLRFSSQIHNNGQSDFRPKNGRHAWIWHDCHRHYHSMEVFTHYDLLNLNGTKVAEGHKASFCLEDTECEGDIQKNYECANFGDQGITMGCWDMYRHDIDCQWVDITDVPPGDYLFQVVINPNFEVAESDYSNNIMKCRSRYDGHRIWMYNCHIGGSFSEETEKKFEHFSGLLNNQLSPQ |
| binds | binds | – | – | – | LOXL2 N-terminal scavenger receptor cysteine-rich domains SRCR 1-2 (residues 58-302) (domain or fragment, UniProt Q9Y4K0 58-302, looked up, LOXL2, SRCR domains 1-2, residues 58-302; also called SRCR 1-2 domain; source: expressed as recombinant protein as previously described [62]) LRLAGQKRKHSEGRVEVYYDGQWGTVCDDDFSIHAAHVVCRELGYVEAKSWTASSSYGKGEGPIWLDNLHCTGNEATLAACTSNGWGVTDCKHTEDVGVVCSDKRIPGFKFDNSLINQIENLNIQVEDIRIRAILSTYRKRTPVMEGYVEVKEGKTWKQICDKHWTAKNSRVVCGMFGFPGERTYNTKVYKMFASRRKQRYWPFSMDCTGTEAHISSCKLGPQVSLDPMKNVTCENGLPAVVSCV |
